Data on 55 compounds can be found in PubChem BioAssay AID1487 (National Center for Advancing Translational Sciences (NCATS), 2009).

The other results are listed elsewhere or left out. Further columns of the screen follow, without active or inactive calls. The list favours compounds with an active or inconclusive main result. Words in brackets tell the shape of the fitted curve; partial curves, single points and poor fits give uncertain potencies.

A word on the AC50: it is the concentration giving half of the maximal activity seen.

The assay in a line: qHTS Assay for Modulators of Lamin A Splicing. To be noted: HeLa LMNA splicing GFP/RFP minigene ratio, 48 h. In a few lines: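 S3 HeLa stable clones carrying a lamin A-EGFP splicing minigene plus DsRed2 were seeded at 600 cells/well in Opti-MEM with 2% FBS, pin-dosed and incubated 48 h at 37°C. Acumen cytometry (488 nm) gave the GFP/RFP total-intensity ratio.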
Where [1] appears, read: measured here: RFP viability control channel.
Setting [2] is: measured here: GFP splicing reporter channel.

In the case of `Cc1cccc(N=Nc2c(C)c(C#N)c(O)[nH]c2=O)c1`, the AC50 under setting [1] was 0.355 µM [rising, full curve, poor fit].
With `Cc1ccc2c(Cl)cc(Cl)c(OCC(=O)Nc3cccc(S(N)(=O)=O)c3)c2n1`, the AC50 runs as follows: under setting [2], 2.82 µM [rising, partial curve]; under setting [1], 6.31 µM [rising, single point].
On to `COc1cccc(-c2cc(C(=O)N3CC4(C)CC3CC(C)(C)C4)no2)c1` (configuration not stated), for which the concentration at half-maximal activity (AC50) runs as follows: under setting [2], 35.5 µM [rising, single point]; under setting [1], 35.5 µM [rising, partial curve].
For the compound `Cc1cc2c(cc1C)CSC(c1c(O)ccc3ccccc13)SC2`, the AC50 under setting [2] is 10 µM [rising, partial curve] and the AC50 under setting [1] is 15.8 µM [rising, single point].
Take `CCOc1ccc(C(=O)Nc2c(C(N)=O)oc3ccccc23)cc1`: the half-maximal activity concentration (AC50) under setting [1] is 22.4 µM [rising, single point].
Take `COc1ccc(CCNc2nc(SCc3ccccc3Cl)nc3ccccc23)cc1OC`: the AC50 reads like this: under setting [2], 2.51 µM [falling, partial curve, poor fit]; under setting [1], 3.16 µM [falling, partial curve, poor fit].
Consider `COc1cc2c(cc1OC)CN(C(=O)c1cc(S(=O)(=O)N3CCOCC3)ccc1Cl)CC2`, for which the AC50 under setting [1] was 12.6 µM [rising, single point].
Consider `O=S1(=O)c2ccccc2N(Cc2ccccc2Cl)c2ccccc21`, for which the AC50 under setting [1] is 0.0631 µM [falling, full curve, poor fit].
Turning to `CCOC(=S)SCc1cn2cccc(C)c2n1`, the AC50 under setting [1] is 0.0891 µM [falling, full curve].
With `Cc1nnc(SC(C)C(=O)Nc2ccc(S(=O)(=O)N3CCCCCC3)cc2)s1` (configuration not stated), the AC50 is, setting by setting: under setting [2], 12.6 µM [rising, single point]; under setting [1], 15.8 µM [rising, single point].
Consider `CC(C)Nc1nc(NC(C)C)nc(SCCOC(=O)Nc2ccc(Cl)cc2Cl)n1`, for which the AC50 reads like this: under setting [2], 14.1 µM [rising, single point]; under setting [1], 31.6 µM [rising, single point].
In the case of `O=c1oc2c3c4c(cc2c2c1CCC2)OCCN4CCC3`, the AC50 is 5.62 µM [rising, partial curve, poor fit] under setting [2] and 6.31 µM [rising, partial curve] under setting [1].
Take `Cc1ccc(S(=O)(=O)N(CC(=O)Nc2ccccc2-c2ccccc2)c2ccc(C)cc2C)cc1`: under setting [1], the AC50 was 35.5 µM [rising, partial curve, poor fit].
Consider `COc1ccccc1CNc1ncnc2ccc(-c3c(C)noc3C)cc12`, for which the AC50 was 1.58 µM [falling, full curve] under setting [2] and 11.2 µM [rising, partial curve] under setting [1].
Take `COc1ccccc1CNC(=O)c1ccc(-c2ccccc2C(F)(F)F)o1`: under setting [1], the half-maximal activity concentration (AC50) was 22.4 µM [rising, single point].
Consider `Cc1ccc(OCC(O)CN2CCN(Cc3ccc4c(c3)OCO4)CC2)cc1C` (configuration not stated), for which the AC50 is 11.2 µM [rising, partial curve] under setting [2] and 14.1 µM [rising, single point] under setting [1].
For `CCN(CC)S(=O)(=O)c1cc([N+](=O)[O-])ccc1NNC(=O)Nc1ccccc1`, the concentration at half-maximal activity (AC50) under setting [2] was 25.1 µM [rising, single point].
The same measure, in the same setting: the result for `CCOC(=O)c1ccc2c(c1)nc(SCC(=O)N1CCOCC1)n2CC` reads 1.41 µM [rising, partial curve].
With `O=C(Nc1nccs1)c1cn(-c2ccccc2)nc1-c1ccccc1`, the AC50 under setting [1] is 20 µM [rising, single point].
As to `C(=C\c1ccccc1)/CSc1nnc(-c2cnccn2)n1Cc1ccco1`, the AC50 reads like this: under setting [2], 31.6 µM [rising, single point]; under setting [1], 35.5 µM [rising, single point].
For `[O-][n+]1cccc2c(Br)cc(Br)c(O)c21`, the concentration at half-maximal activity (AC50) under setting [2] was 0.0112 µM [rising, full curve, poor fit].
For the compound `CC(=O)Nc1ccc(S(=O)(=O)N2CCN(c3cc(C)ccc3C)CC2)cc1`, the concentration at half-maximal activity (AC50) was 35.5 µM [rising, single point] under setting [2] and 35.5 µM [rising, partial curve] under setting [1].
In the case of `COC(=O)Cn1c(=NC(=O)c2cc(OC)c(OC)c(OC)c2)sc2cc(OC)ccc21`, the AC50 under setting [1] is 0.0224 µM [rising, full curve, poor fit].
Take `O=C(CN1CCCN(S(=O)(=O)c2ccc(F)cc2)CC1)Nc1ccccc1Br`: the half-maximal activity concentration (AC50) is 35.5 µM [rising, single point] under setting [2] and 35.5 µM [rising, single point] under setting [1].
`N#C/C(=C\c1ccc(-c2ccccc2[N+](=O)[O-])o1)C(=O)Nc1nc(-c2cccs2)cs1`: the half-maximal activity concentration (AC50) under setting [2] is 12.6 µM [rising, single point] and the AC50 under setting [1] is 14.1 µM [rising, single point].
In the case of `COc1ccc(CNC(=O)c2cc3c(=O)n(Cc4cccs4)ccc3nc2C)cc1`, the AC50 by setting is: under setting [2], 8.91 µM [rising, partial curve]; under setting [1], 7.08 µM [rising, partial curve].
`O=C(CN1C(=O)S/C(=C/c2cccnc2)C1=O)N1CCOCC1`: the AC50 under setting [1] was 10 µM [falling, single point].
In the case of `COc1ccc(CNC(=O)c2c(N)n(CCCN3CCOCC3)c3nc4ccccc4nc23)cc1`, the AC50 runs as follows: under setting [2], 35.5 µM [falling, single point]; under setting [1], 31.6 µM [falling, partial curve].
Regarding `O=C1OC(c2ccc(O)cc2)(c2ccc(O)cc2)c2ccccc21`, the AC50 under setting [1] is 0.0251 µM [rising, full curve, poor fit].
On the same count and under the same terms, the result for `COc1ccc(NC(=O)/C(C#N)=C/c2c(C)nn(-c3ccc(F)cc3)c2Cl)cc1OC` reads 11.2 µM [rising, partial curve].
With `CCOC(=O)c1cc(C)n(S(=O)(=O)c2ccc(C)cc2)c1C`, the AC50 is 15.8 µM [rising, single point] under setting [2] and 15.8 µM [rising, partial curve] under setting [1].
With `c1cc(Nc2ncnc3sccc23)cc(-c2nnc3n2CCCCC3)c1`, the concentration at half-maximal activity (AC50) under setting [1] was 14.1 µM [rising, partial curve].
With `COc1cccc(NC(=S)NNC(=O)c2ccccc2OC(F)F)c1`, the AC50 was 25.1 µM [falling, single point] under setting [2] and 35.5 µM [falling, single point] under setting [1].
Turning to `Cc1cc(=O)n2c(C(=O)Nc3ccc(C)c(C)c3)c(C(=O)Nc3ccccc3)sc2n1`, the concentration at half-maximal activity (AC50) under setting [1] is 35.5 µM [falling, single point].
For `CN(C)c1ccc(CNc2nc(-c3ccco3)nn2S(=O)(=O)c2ccc(Cl)cc2)cc1`, the AC50 under setting [2] was 0.00794 µM [falling, full curve, poor fit].
In the case of `Cc1nn(-c2ccc(F)cc2)c(C)c1/C=C/C(=O)N1CCNC(=O)C1`, the concentration at half-maximal activity (AC50) under setting [1] is 28.2 µM [falling, single point].
`Cc1ccc(S(=O)(=O)N[C@H](C(=O)OCn2nnc3ccccc3c2=O)C(C)C)cc1`: under setting [1], the AC50 is 17.8 µM [rising, single point].
Still for that read-out and setting: the result for `COc1ccc(C(NC(=O)C2CCCCC2)c2c(O)ccc3ccccc23)cc1` (configuration not stated) reads 12.6 µM [rising, partial curve]; that for `c1ccc2c(c1)CC1(CCCCC1)n1nnnc1-2`, 6.31 µM [rising, partial curve, poor fit].
For `CCn1nc(NC(=O)c2cccs2)c2cc3ccccc3nc21`, under setting [2], the AC50 is 35.5 µM [falling, single point].
In the case of `CCOC(=O)c1cnc(-n2nc(C)cc2C)nc1NCCc1ccccc1`, the AC50 is 6.31 µM [rising, full curve] under setting [2] and 3.55 µM [rising, full curve] under setting [1].
Take `CC1CCN(C(=O)COc2cccc3c2CCN(C)C3=O)CC1`: the AC50 under setting [1] is 35.5 µM [falling, partial curve, poor fit].
As for `Cc1ccc(C)c(N2CCN(CCCNC(=O)Cn3c(-c4cccs4)cc4ccccc43)CC2)c1`, the half-maximal activity concentration (AC50) under setting [2] is 25.1 µM [falling, single point] and the half-maximal activity concentration (AC50) under setting [1] was 35.5 µM [falling, partial curve].
Consider `O=C(CCC1CC(=O)Nc2ccccc21)NCc1ccc(F)cc1` (configuration not stated), for which the half-maximal activity concentration (AC50) under setting [1] is 39.8 µM [falling, partial curve, poor fit].
The same measure, in the same setting: the result for `COc1ccc2c(c1)c(C(=O)CN1CCN(C(=O)c3ccco3)CC1)c(C)n2C` reads 10 µM [rising, partial curve, poor fit].
For `S=C(NCCC(c1ccccc1)c1ccccc1)Nc1ccc(Cl)cc1`, the AC50 is 35.5 µM [falling, single point] under setting [2] and 35.5 µM [falling, single point] under setting [1].
With `O=C(NCc1ccco1)c1ccc(Cl)c(S(=O)(=O)N2CCc3ccccc32)c1`, the concentration at half-maximal activity (AC50) is 20 µM [rising, single point] under setting [2] and 22.4 µM [rising, partial curve] under setting [1].
For `Cc1cc2n(n1)SC(Nc1ccc(F)c(Cl)c1)N2` (configuration not stated), the AC50 under setting [1] is 31.6 µM [rising, single point].
For `Cc1nn(-c2nc3ccccc3[nH]2)c(N)c1-c1ccccc1`, under setting [1], the AC50 is 17.8 µM [rising, single point].
Turning to `CCCNC(=S)N1CCC(NC(=O)C23CC4CC(CC(C4)C2)C3)CC1`, the concentration at half-maximal activity (AC50) under setting [1] was 17.8 µM [rising, partial curve, poor fit].
Still for that read-out and setting: as for `CC1Cc2ccccc2N1S(=O)(=O)c1cccc(C(=O)NC2CC2)c1` (configuration not stated), the figure is 17.8 µM [rising, single point].
`O=C(CSc1nc2nc(-c3cccs3)cc(C(F)(F)F)c2c(=O)[nH]1)Nc1c(F)c(F)c(F)c(F)c1F`: the AC50 under setting [2] was 2.82 µM [falling, single point].
Consider `CN(C)c1ccc(NC(=O)Cn2ncn3c(cc4ccccc43)c2=O)cc1`, for which the AC50 under setting [1] is 10 µM [rising, partial curve, poor fit].
On the same count and under the same terms, the result for `O=C(CO/N=C/c1ccc(OC(F)F)cc1)NCc1ccc(F)cc1` reads 12.6 µM [rising, partial curve, poor fit].
Regarding `Cc1[nH]c2ccccc2c1C(=O)CSc1nc2cc(S(=O)(=O)N3CCCCC3)ccc2o1`, the AC50 runs as follows: under setting [2], 2.51 µM [rising, full curve]; under setting [1], 5.01 µM [rising, full curve].
